{"source": "PubChem BioAssay AID1259327 (Drosophila RNAi Screening Center, 2017)", "test": "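Knock-downs altering cellular ATP with no metal added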", "cells": "Drosophila S2R+ cells", "reagent": "long dsRNA against Drosophila genes", "duration": "5 days (water added on day 4, read one day later)", "conditions": "water added as vehicle, no metal, one day before read-out", "read-out": "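Luciferase ATP signal per well, normalised to plate mean, duplicate average converted to z-score across plates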", "reading the numbers": "ATP z-score: higher = more total ATP than typical wells; ATP luminescence: higher = more total ATP", "active means": "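a hit is any knock-down whose absolute ATP z-score is greater than 1.5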", "calls": "active = hit: ATP up or down; inactive = no clear ATP change", "note": "Here is a random part of about 3,100 deposited reagents. Over the whole deposit, 378 (12%) were called active. 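Hits include both directions; z-score sign shows ATP rise or fall; raw luminescence values are not plate-normalised.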 Entries without a mark were called inactive. No sequences are given here. Not stated in the record: the amount of reagent."}
{"gene knocked down":"CG8046","dsRNA":"DRSC07059","ATP z-score, duplicate mean":0.246,"ATP luminescence, replicate 1 (RLU)":7.98e5,"ATP luminescence, replicate 2 (RLU)":7.15e5}
{"gene knocked down":"ed (echinoid)","dsRNA":"DRSC00350","ATP z-score, duplicate mean":-0.922,"ATP luminescence, replicate 1 (RLU)":4.54e5,"ATP luminescence, replicate 2 (RLU)":3.72e5}
{"gene knocked down":"ed (echinoid)","dsRNA":"DRSC00439","ATP z-score, duplicate mean":-0.598,"ATP luminescence, replicate 1 (RLU)":2.65e5,"ATP luminescence, replicate 2 (RLU)":7.16e5}
{"gene knocked down":"ed (echinoid)","dsRNA":"DRSC00478","ATP z-score, duplicate mean":-0.369,"ATP luminescence, replicate 1 (RLU)":6.99e5,"ATP luminescence, replicate 2 (RLU)":6.75e5}
{"gene knocked down":"CG33958","dsRNA":"DRSC06472","ATP z-score, duplicate mean":-0.434,"ATP luminescence, replicate 1 (RLU)":6.83e5,"ATP luminescence, replicate 2 (RLU)":7.09e5}
{"gene knocked down":"CG33958","dsRNA":"DRSC06944","ATP z-score, duplicate mean":0.182,"ATP luminescence, replicate 1 (RLU)":6.88e5,"ATP luminescence, replicate 2 (RLU)":5.84e5}
{"gene knocked down":"CG33958","dsRNA":"DRSC29635","ATP z-score, duplicate mean":0.247,"ATP luminescence, replicate 1 (RLU)":7.69e5,"ATP luminescence, replicate 2 (RLU)":9.28e5}
{"gene knocked down":"CG8405","dsRNA":"DRSC07166","ATP z-score, duplicate mean":-0.421,"ATP luminescence, replicate 1 (RLU)":5.08e5,"ATP luminescence, replicate 2 (RLU)":6.55e5}
{"gene knocked down":"CG8405","dsRNA":"DRSC39857","ATP z-score, duplicate mean":0.155,"ATP luminescence, replicate 1 (RLU)":6.52e5,"ATP luminescence, replicate 2 (RLU)":5.37e5}
{"gene knocked down":"Octbeta3R (Octopamine beta3 receptor)","dsRNA":"DRSC21853","ATP z-score, duplicate mean":1.26,"ATP luminescence, replicate 1 (RLU)":7.09e5,"ATP luminescence, replicate 2 (RLU)":6.63e5}
{"gene knocked down":"Octbeta3R (Octopamine beta3 receptor)","dsRNA":"DRSC25327","ATP z-score, duplicate mean":0.11,"ATP luminescence, replicate 1 (RLU)":8.89e5,"ATP luminescence, replicate 2 (RLU)":7.87e5}
{"gene knocked down":"Tsp42Ej (Tetraspanin 42Ej)","dsRNA":"DRSC06113","ATP z-score, duplicate mean":"1.94 (active)","ATP luminescence, replicate 1 (RLU)":8.90e5,"ATP luminescence, replicate 2 (RLU)":1.02e6}
{"gene knocked down":"Tsp42Ej (Tetraspanin 42Ej)","dsRNA":"DRSC28269","ATP z-score, duplicate mean":"-1.97 (active)","ATP luminescence, replicate 1 (RLU)":5.94e5,"ATP luminescence, replicate 2 (RLU)":5.78e5}
{"gene knocked down":"PIG-Wb (Phosphatidylinositol glycan anchor biosynthesis class W b)","dsRNA":"DRSC08526","ATP z-score, duplicate mean":"1.52 (active)","ATP luminescence, replicate 1 (RLU)":7.64e5,"ATP luminescence, replicate 2 (RLU)":7.49e5}
{"gene knocked down":"CG11069","dsRNA":"DRSC14289","ATP z-score, duplicate mean":0.413,"ATP luminescence, replicate 1 (RLU)":7.56e5,"ATP luminescence, replicate 2 (RLU)":7.41e5}
{"gene knocked down":"Cirl (Calcium-independent receptor for alpha-latrotoxin)","dsRNA":"DRSC23235","ATP z-score, duplicate mean":-0.739,"ATP luminescence, replicate 1 (RLU)":5.21e5,"ATP luminescence, replicate 2 (RLU)":5.13e5}
{"gene knocked down":"Cirl (Calcium-independent receptor for alpha-latrotoxin)","dsRNA":"DRSC28280","ATP z-score, duplicate mean":-0.563,"ATP luminescence, replicate 1 (RLU)":7.84e5,"ATP luminescence, replicate 2 (RLU)":7.28e5}
